# Measured values from the supplement of paper PMC8728848.
# This is one part of the list.
# B1: Protein L(B1-B4) (Finegoldia magna), Q51912 (protein)
# chain: KEETPETPETDSEEEVTIKANLIFANGSTQTAEFKGTFEKATSEAYAYADTLKKDNGEYTVDVADKGYTLNIKFAGKEKTPEEPKEEVTIKANLIYADGKTQTAEFKGTFEEATAEAYRYADALKKDNGEYTVDVADKGYTLNIKFAGKEKTPEEPKEEVTIKANLIYADGKTQTAEFKGTFEEATAEAYRYADLLAKENGKYTVDVADKGYTLNIKFAGKEKTPEEPKEEVTIKANLIYADGKTQTAEFKGTFAEATAEAYRYADLLAKENGKYTADLEDGGYTINIRFAG
# What was measured:
# Test in all cases: glycan array binding signal (z-score within array); higher = stronger binding
# Conditions in all cases: glycan notation: IUPAC condensed, linker removed
# [1] = molecular target: Fuc(a1-2)Gal(b1-4)GlcNAc(b1-3)Gal(b1-4)GlcNAc(b1-2)Man(a1-3)[Fuc(a1-2)Gal(b1-4)GlcNAc(b1-3)Gal(b1-4)GlcNAc(b1-2)Man(a1-6)]Man(b1-4)GlcNAc(b1-4)GlcNAc
# Outline: (§1)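 From the Consortium for Functional Glycomics database, 3228 arrays were curated, keeping only those whose protein sequence was available. Binding is given as a within-array Z-score averaged across arrays sharing a protein sequence and across linkers. Negative Z-scores can be read as non-binding.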
# [2] = molecular target: Fuc(a1-2)Gal(b1-4)GlcNAc(b1-3)Gal(b1-4)GlcNAc(b1-3)Gal(b1-4)GlcNAc
# Outline: as §1
# [3] = molecular target: Fuc(a1-2)Gal(b1-4)GlcNAc(b1-3)GalNAc
# Outline: as §1
# [4] = molecular target: Fuc(a1-2)Gal(b1-4)GlcNAc(b1-3)[Fuc(a1-2)Gal(b1-4)GlcNAc(b1-6)]GalNAc
# Outline: as §1
# [5] = molecular target: Fuc(a1-2)Gal(b1-4)GlcNAc(b1-3)[Fuc(a1-3)[Gal(b1-4)]GlcNAc(b1-6)]Gal(b1-4)Glc
# Outline: as §1
# [6] = molecular target: Fuc(a1-2)Gal(b1-4)GlcNAc(b1-6)GalNAc
# Outline: as §1
# [7] = molecular target: Fuc(a1-2)Gal(b1-4)GlcNAc6S
# Outline: as §1
# [8] = molecular target: Fuc(a1-2)Gal(b1-4)[Fuc(a1-3)]GlcNAc
# Outline: as §1
# [9] = molecular target: Fuc(a1-2)Gal(b1-4)[Fuc(a1-3)]GlcNAc(b1-2)Man(a1-3)[Fuc(a1-2)Gal(b1-4)[Fuc(a1-3)]GlcNAc(b1-2)Man(a1-6)]Man(b1-4)GlcNAc(b1-4)[Fuc(a1-6)]GlcNAc
# Outline: as §1
# [10] = molecular target: Fuc(a1-2)Gal(b1-4)[Fuc(a1-3)]GlcNAc(b1-2)[Fuc(a1-2)Gal(b1-4)[Fuc(a1-3)]GlcNAc(b1-4)]Man(a1-3)[Fuc(a1-2)Gal(b1-4)[Fuc(a1-3)]GlcNAc(b1-2)Man(a1-6)]Man(b1-4)GlcNAc(b1-4)GlcNAc
# Outline: as §1
# [11] = molecular target: Fuc(a1-2)Gal(b1-4)[Fuc(a1-3)]GlcNAc(b1-3)Gal(b1-4)[Fuc(a1-3)]GlcNAc
# Outline: as §1
# [12] = molecular target: Fuc(a1-2)Gal(b1-4)[Fuc(a1-3)]GlcNAc(b1-3)Gal(b1-4)[Fuc(a1-3)]GlcNAc(b1-3)Gal(b1-4)[Fuc(a1-3)]GlcNAc
# Outline: as §1
# [13] = molecular target: Fuc(a1-2)Gal(b1-4)[Fuc(a1-3)]GlcNAc(b1-3)GalNAc
# Outline: as §1
# [14] = molecular target: Fuc(a1-2)Gal(b1-4)[Fuc(a1-3)]GlcNAc(b1-3)[Neu5Ac(a2-6)Gal(b1-4)GlcNAc(b1-6)]Gal(b1-4)Glc
# Outline: as §1
# [15] = molecular target: Fuc(a1-2)Gal3S(b1-4)GlcNAc
# Outline: as §1
# [16] = molecular target: Fuc(a1-2)Gal6S(b1-3)GlcNAc
# Outline: as §1
# [17] = molecular target: Fuc(a1-2)Gal6S(b1-3)GlcNAc6S
# Outline: as §1
# [18] = molecular target: Fuc(a1-2)Gal6S(b1-4)Glc
# Outline: as §1
# [19] = molecular target: Fuc(a1-2)Gal6S(b1-4)Glc6S
# Outline: as §1
# [20] = molecular target: Fuc(a1-2)[Gal(a1-3)]Gal
# Outline: as §1
# [21] = molecular target: Fuc(a1-2)[Gal(a1-3)]Gal(b1-3)GalNAc
# Outline: as §1
# [22] = molecular target: Fuc(a1-2)[Gal(a1-3)]Gal(b1-3)GalNAc(b1-3)Gal(a1-4)Gal(b1-4)Glc
# Outline: as §1
# [23] = molecular target: Fuc(a1-2)[Gal(a1-3)]Gal(b1-3)GlcNAc
# Outline: as §1
# [24] = molecular target: Fuc(a1-2)[Gal(a1-3)]Gal(b1-3)GlcNAc(b1-2)Man(a1-3)[Fuc(a1-2)[Gal(a1-3)]Gal(b1-3)GlcNAc(b1-2)Man(a1-6)]Man(b1-4)GlcNAc(b1-4)GlcNAc
# Outline: as §1
# [25] = molecular target: Fuc(a1-2)[Gal(a1-3)]Gal(b1-3)GlcNAc(b1-2)Man(a1-3)[Fuc(a1-2)[Gal(a1-3)]Gal(b1-3)GlcNAc(b1-2)Man(a1-6)]Man(b1-4)GlcNAc(b1-4)[Fuc(a1-6)]GlcNAc
# Outline: as §1
# [26] = molecular target: Fuc(a1-2)[Gal(a1-3)]Gal(b1-3)GlcNAc(b1-3)GalNAc
# Outline: as §1
# [27] = molecular target: Fuc(a1-2)[Gal(a1-3)]Gal(b1-3)GlcNAc(b1-6)GalNAc
# Outline: as §1
# [28] = molecular target: Fuc(a1-2)[Gal(a1-3)]Gal(b1-4)Glc
# Outline: as §1
# [29] = molecular target: Fuc(a1-2)[Gal(a1-3)]Gal(b1-4)GlcNAc
# Outline: as §1
# [30] = molecular target: Fuc(a1-2)[Gal(a1-3)]Gal(b1-4)GlcNAc(b1-2)Man
# Outline: as §1
binder,measurement,setting,value
B1,glycan array binding signal (z-score),[1],0.858
same,glycan array binding signal (z-score),[2],1.14
same,glycan array binding signal (z-score),[3],1.03
same,glycan array binding signal (z-score),[4],1.03
same,glycan array binding signal (z-score),[5],-0.897
same,glycan array binding signal (z-score),[6],1.04
same,glycan array binding signal (z-score),[7],-0.503
same,glycan array binding signal (z-score),[8],-0.142
same,glycan array binding signal (z-score),[9],-0.114
same,glycan array binding signal (z-score),[10],0.954
same,glycan array binding signal (z-score),[11],-0.222
same,glycan array binding signal (z-score),[12],0.159
same,glycan array binding signal (z-score),[13],1.58
same,glycan array binding signal (z-score),[14],-0.418
same,glycan array binding signal (z-score),[15],-0.671
same,glycan array binding signal (z-score),[16],-0.139
same,glycan array binding signal (z-score),[17],0.659
same,glycan array binding signal (z-score),[18],0.451
same,glycan array binding signal (z-score),[19],-0.084
same,glycan array binding signal (z-score),[20],-0.318
same,glycan array binding signal (z-score),[21],-0.327
same,glycan array binding signal (z-score),[22],-0.736
same,glycan array binding signal (z-score),[23],-0.191
same,glycan array binding signal (z-score),[24],0.266
same,glycan array binding signal (z-score),[25],3.09
same,glycan array binding signal (z-score),[26],0.698
same,glycan array binding signal (z-score),[27],-0.099
same,glycan array binding signal (z-score),[28],0.047
same,glycan array binding signal (z-score),[29],-0.82
same,glycan array binding signal (z-score),[30],-0.663

# Two records picked at random from the list so far, as already listed:
binder,measurement,setting,value
B1,glycan array binding signal (z-score),[24],0.266
same,glycan array binding signal (z-score),[23],-0.191
